Measured values published in paper PMC9491610.
Numbering of substitutions follows the chain as printed. No constants are given. Whether binding was seen depends on the method and setting. Binding seen in cells or lysates may run through a third protein. Some results given as binding are weak or reduced against the parent protein; the word gives no strength. For part of these data: Sequences can lack the tags named with a protein.

How the values were obtained:
Test in all cases: co-IP; Stu2-HA precipitated with anti-HA magnetic beads from 90 mg cryo-milled yeast extract in 1x PBS pH 7.4 with 0.1% Tween; precipitate blotted with anti γ-tubulin (anti-Tub4)
[1] = target: T1, Stu2-HA (wild-type Stu2, 3xHA tagged) (S. cerevisiae) (UniProt P46675)
T1 sequence: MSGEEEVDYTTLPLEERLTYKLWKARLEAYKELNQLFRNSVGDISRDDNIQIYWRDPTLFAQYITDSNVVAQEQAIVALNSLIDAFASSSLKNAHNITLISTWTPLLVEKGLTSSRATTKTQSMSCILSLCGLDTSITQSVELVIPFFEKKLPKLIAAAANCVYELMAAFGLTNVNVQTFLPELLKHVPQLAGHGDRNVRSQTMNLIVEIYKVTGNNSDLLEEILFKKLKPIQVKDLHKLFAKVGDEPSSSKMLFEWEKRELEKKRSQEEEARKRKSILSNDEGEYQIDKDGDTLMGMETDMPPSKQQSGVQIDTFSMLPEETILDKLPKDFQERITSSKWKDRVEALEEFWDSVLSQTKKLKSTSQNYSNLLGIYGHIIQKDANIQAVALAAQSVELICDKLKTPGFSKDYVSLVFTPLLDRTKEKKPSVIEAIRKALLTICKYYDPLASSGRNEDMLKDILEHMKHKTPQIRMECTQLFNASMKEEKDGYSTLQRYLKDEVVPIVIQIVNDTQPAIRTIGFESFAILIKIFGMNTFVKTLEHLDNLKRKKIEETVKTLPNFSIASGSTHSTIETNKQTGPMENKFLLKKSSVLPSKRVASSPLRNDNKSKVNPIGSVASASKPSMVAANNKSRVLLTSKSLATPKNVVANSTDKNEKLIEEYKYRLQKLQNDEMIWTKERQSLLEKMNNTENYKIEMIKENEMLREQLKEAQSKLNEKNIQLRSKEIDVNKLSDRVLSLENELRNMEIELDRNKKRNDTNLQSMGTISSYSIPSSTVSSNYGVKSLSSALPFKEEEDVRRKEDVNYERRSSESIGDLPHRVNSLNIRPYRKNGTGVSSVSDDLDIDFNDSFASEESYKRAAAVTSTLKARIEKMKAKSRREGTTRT

[2] = target: T2, Stu2-K252,469,870Q-3xHA (S. cerevisiae) (UniProt P46675)
T2 sequence: T1 sequence with K252Q, K469Q, K870Q

[3] = target: T3, Stu2-K252,469,870R-3xHA (S. cerevisiae) (UniProt P46675)
T3 sequence: T1 sequence with K252R, K469R, K870R

Measured: binding

B1: γ-tubulin (Tub4) (protein, UniProt P53378 1-473)
chain: MGGEIITLQAGQCGNHVGKFLWSQLAKEHAIGTDGLSQLPDSSTERDDDTKPFFRENSRNKFTPRAIMMDSEPSVIADVENTFRGFFDPRNTWVASDGASAGNSWANGYDIGTRNQDDILNKIDKEIDSTDNFEGFQLLHSVAGGTGSGLGSNLLEALCDRYPKKILTTYSVFPARSSEVVVQSYNTILALRRLIEDSDATVVFDNASLLNISGKVFRNPNIDLQHTNQLISTIISSVTNSIRFPSYMYSSMSSIYSTLIPSPELHFLSPSFTPFTSDYIHDDIAHKGHSSYDVMLDLLDPSNSLVSTAMNNPTYFNVYNTIIGNVEPRQISRAMTKLQQRIKFPSWSSSAMHVNIGRRSPYLPLQPNENEVSGMMLSNMSTVVNVFENACNTFDKVFAKGAFLNNYNVGDLFQSMQNVQDEFAESREVVQSLMEDYVAAEQDSYLDDVLVDDENMVGELEEDLDADGDHKLV
binds: all assays above
